Here are results for 41 molecules from PubChem BioAssay AID493014 (National Center for Advancing Translational Sciences (NCATS), 2011).

Structures are written as SMILES. The list shows a part of the results. The main result of the screen is listed elsewhere. These columns were measured beside it and carry no call. The list favours compounds with an active or inconclusive main result. Potencies come from curve fits of mixed quality, noted in brackets.

A short description of this assay: qHTS Assay to Find Inhibitors of Chronic Active B-Cell Receptor Signaling. To be noted: ABC-DLBCL IkBa-CBG/CBR reporter, luminescence ratio (green luciferase fused to IkBa over red control in TMD8 lymphoma cells), 4 h. The method in brief: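 Concentration-response series (up to 46 uM) were applied to TMD8 dual-reporter cells for 4 h at 37C with doxycycline. Green/red ratio, after filter-overlap correction, defined %Activity; red signal alone was normalised to basal cells and zero luminescence.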
A general note: In qHTS, concentration-response curves come from the screen itself.

The mark [1] stands for this setting: measured here: CBR red luminescence, cell number.
Where [2] appears, read: measured here: IkBa-CBG green luminescence.

What is called AC50 is the midpoint of the concentration-response curve, whichever way the signal moves. Consider `Cc1cc2ccccn2c1C(=O)Nc1ccc(Cl)cc1`, for which the AC50 under setting [1] is 35.5 µM [falling, single point].
As to `C[C@@]12C(=O)Nc3cc(F)ccc3C(=O)N1[C@H]1c3ccccc3OC[C@@H]1[C@@H]2c1ccccc1`, under setting [1], the AC50 is 1.16 µM [falling, full curve].
Same read-out and setting: with `CCOc1ccc(NC(=O)C2CC(=O)NC(N3CCc4ccccc43)=N2)cc1` (stereo unspecified) the figure was 1.84 µM [rising, partial curve, poor fit].
On the same count and under the same terms, with `CC1(C)ON(C2CCCCC2)[C@H]2c3nc4ccccc4n3C[C@H]21` the figure was 12.6 µM [falling, partial curve].
With `CC(C)n1c(=S)[nH]c2ccccc2c1=O`, the AC50 under setting [1] was 35.5 µM [falling, single point] and the AC50 under setting [2] was 22.4 µM [falling, single point].
On to `COc1cc(C(O)c2nc3ccccc3s2)cc(OC)c1OC` (stereo unspecified), for which the AC50 under setting [2] was 14.1 µM [falling, partial curve, poor fit].
As to `CCCOc1cccc(C(=O)N/N=C/c2coc3ccccc3c2=O)c1`, the AC50 under setting [1] was 2.24 µM [falling, partial curve, poor fit].
On to `CCN1CCN(CC(=O)Nc2cccc(C)c2C)C(=O)C1=O`, for which the AC50 under setting [1] is 0.517 µM [rising, partial curve, poor fit].
Consider `CCOC(=O)c1c(NC(=O)CSc2nc3ccccc3[nH]2)sc2c1CC(C)(C)NC2(C)C`, for which the AC50 under setting [1] is 32.6 µM [falling, single point].
`CC(=O)Cn1cnc2sc(-c3ccccc3)cc2c1=O`: the AC50 under setting [1] is 11.6 µM [falling, partial curve].
Still for that read-out and setting: with `O=C(O)c1cccc(NC(=O)c2ccc(N3C(=O)c4ccc(C(=O)Nc5cccc(C(=O)O)c5)cc4C3=O)cc2)c1` the figure was 1.26 µM [falling, full curve, poor fit]; with `O=C(Nc1ccc(F)cc1)C(Sc1nc2ccccc2[nH]1)c1ccccc1` (stereo unspecified), 1.03 µM [rising, partial curve, poor fit].
On the same count and under the same terms, with `COc1ccc(NC(=O)C#Cc2ccccc2)cc1` the figure was 14.1 µM [falling, single point].
For `C=CCn1c(NC(=O)c2ccccc2Cl)c(C#N)c2nc3ccccc3nc21`, the AC50 by setting is: under setting [1], 25.1 µM [rising, single point]; under setting [2], 22.4 µM [falling, single point].
Turning to `Cc1ccnc(NC(=O)COc2ccc3c(c2)CCC3)c1`, the AC50 under setting [1] is 6.51 µM [falling, full curve].
For `O=C(Nc1ccc2sccc2c1)c1ccc(Cl)s1`, under setting [1], the AC50 is 25.9 µM [falling, partial curve, poor fit].
As for `O=C(NCCc1c[nH]c2ccccc12)c1ccc2c(c1)OCO2`, under setting [1], the AC50 is 3.55 µM [falling, partial curve, poor fit].
The same measure, in the same setting: the figure for `C/C(=N\NC(=O)c1ccc(NS(=O)(=O)c2cccs2)cc1)c1ccccc1` is 16.4 µM [falling, partial curve].
The same measure, in the same setting: the figure for `O=C(Nc1ccccc1C(=O)O)c1ccc2ccccc2n1` is 0.891 µM [falling, full curve]; for `COc1ccc(CN2CCN(Cc3ccc(C)cc3)CC2)c(OC)c1` it is 17.8 µM [rising, partial curve, poor fit].
Still for that read-out and setting: the figure for `COc1ccc(S(=O)(=O)N(C)CC(=O)NCc2ccco2)cc1OC` is 35.5 µM [rising, single point]; for `c1ccc(COc2cccc(CNCc3ccccn3)c2)cc1` it is 0.398 µM [rising, partial curve, poor fit]; for `O=C1NCC(O)=C1C=NCCO` it is 1.3 µM [rising, partial curve, poor fit].
As to `CC1(C)C([N+](=O)[O-])C(c2ccc(Cl)cc2)NC(c2ccc(Cl)cc2)C1[N+](=O)[O-]` (stereo unspecified), under setting [2], the AC50 was 20.6 µM [rising, partial curve, poor fit].
`COc1ccc(-c2ncc(CN3CCN(CCC(C)C)C(CCO)C3)cn2)cc1` (stereo unspecified): the AC50 under setting [1] is 3.16 µM [rising, single point].
As to `CCOC(=O)c1c(C=O)c(C)n(Cc2ccc(Cl)cc2)c1C`, the AC50 under setting [2] is 11.6 µM [falling, partial curve, poor fit].
For `Oc1ccccc1N1CCN(CC(O)COCc2ccccc2Cl)CC1` (stereo unspecified), under setting [1], the AC50 was 4.47 µM [rising, partial curve, poor fit].
Same read-out and setting: the figure for `CCOc1ccc(-c2nc(-c3ccccc3C)no2)cc1` is 6.51 µM [falling, single point].
Same read-out and setting: the figure for `CC(=O)c1cc(OC(=O)c2ccncc2)ccc1OC(=O)c1ccncc1` is 6.51 µM [falling, single point].
On the same count and under the same terms, the figure for `CCOc1ccc(CNC(=O)CCS(=O)(=O)Cc2ccccc2C)cc1OC` is 20 µM [rising, single point]; for `CSc1nnc(N2C(=O)C(O)=C(C(=O)c3ccco3)C2c2cccc(Cl)c2)s1` (stereo unspecified) it is 2.24 µM [falling, full curve, poor fit].
On to `O=C(C1CCCC1)N1CCN=C1SCc1cccc([N+](=O)[O-])c1`, for which the AC50 under setting [1] was 25.1 µM [falling, single point].
Consider `CNC(=S)NNC(=O)c1cc(C(C)(C)C)nn1Cc1ccc(F)cc1`, for which the AC50 under setting [1] is 31.6 µM [rising, single point] and the AC50 under setting [2] is 35.5 µM [falling, single point].
For the molecule `CN(C)/C=C/C(=O)c1ccc2noc(-c3ccc(F)cc3)c2c1`, the AC50 under setting [1] is 22.4 µM [falling, single point].
As for `Nc1c(Cl)c(Cl)nc(C(=O)OCC(=O)N2CCCC2=O)c1Cl`, the AC50 under setting [1] was 6.51 µM [rising, full curve].
For the molecule `COc1cc(CNC2CCCC2)cc(Cl)c1OCc1ccc(F)cc1`, the concentration at half-maximal activity (AC50) runs as follows: under setting [1], 23.1 µM [falling, partial curve]; under setting [2], 16.4 µM [rising, partial curve, poor fit].
In the case of `O=C(NC1CC1)c1cc2cc3ccccc3nc2s1`, under setting [1], the AC50 is 20 µM [falling, single point].
Still for that read-out and setting: the figure for `COc1ccccc1S(=O)(=O)N1CCn2cccc2C1C` (stereo unspecified) is 2.91 µM [falling, full curve]; for `CC(C)NC(=S)N/N=C/C1=CCC2CC1C2(C)C` (stereo unspecified) it is 29.1 µM [falling, single point]; for `CC(C)OC(=O)/C(C#N)=C/c1c[nH]c2ccccc12` it is 0.206 µM [rising, full curve].
In the case of `CC(C)c1nc(CNC(=O)c2cc(COc3c(F)cccc3F)on2)cs1`, the AC50 reads like this: under setting [1], 11.2 µM [falling, partial curve]; under setting [2], 11.2 µM [rising, partial curve, poor fit].
